Measurements taken from PMC10289663.
No constants are given. Whether binding was seen depends on the method and setting. Binding seen in cells or lysates may run through a third protein.

Sequences of proteins named here, by UniProt entry; tags and fusion partners are left off.
UniProt Q9Y6W5: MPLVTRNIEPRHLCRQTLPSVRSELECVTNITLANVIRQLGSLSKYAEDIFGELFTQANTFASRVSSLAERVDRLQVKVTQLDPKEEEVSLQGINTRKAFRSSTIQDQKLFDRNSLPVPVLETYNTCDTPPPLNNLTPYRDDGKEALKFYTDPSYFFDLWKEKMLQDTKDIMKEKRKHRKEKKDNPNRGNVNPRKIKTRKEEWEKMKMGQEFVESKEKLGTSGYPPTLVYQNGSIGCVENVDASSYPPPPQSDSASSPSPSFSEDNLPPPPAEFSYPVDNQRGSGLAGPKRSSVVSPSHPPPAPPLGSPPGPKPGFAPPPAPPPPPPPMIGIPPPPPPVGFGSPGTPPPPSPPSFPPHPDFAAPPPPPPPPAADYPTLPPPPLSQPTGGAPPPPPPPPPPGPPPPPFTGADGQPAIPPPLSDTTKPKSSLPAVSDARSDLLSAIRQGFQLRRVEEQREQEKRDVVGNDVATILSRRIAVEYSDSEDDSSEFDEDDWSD

T1: GDE3 (glycerophosphodiester phosphodiesterase 3), as used in the coimmunoprecipitations (UniProt Q9ESM6)
T1 sequence: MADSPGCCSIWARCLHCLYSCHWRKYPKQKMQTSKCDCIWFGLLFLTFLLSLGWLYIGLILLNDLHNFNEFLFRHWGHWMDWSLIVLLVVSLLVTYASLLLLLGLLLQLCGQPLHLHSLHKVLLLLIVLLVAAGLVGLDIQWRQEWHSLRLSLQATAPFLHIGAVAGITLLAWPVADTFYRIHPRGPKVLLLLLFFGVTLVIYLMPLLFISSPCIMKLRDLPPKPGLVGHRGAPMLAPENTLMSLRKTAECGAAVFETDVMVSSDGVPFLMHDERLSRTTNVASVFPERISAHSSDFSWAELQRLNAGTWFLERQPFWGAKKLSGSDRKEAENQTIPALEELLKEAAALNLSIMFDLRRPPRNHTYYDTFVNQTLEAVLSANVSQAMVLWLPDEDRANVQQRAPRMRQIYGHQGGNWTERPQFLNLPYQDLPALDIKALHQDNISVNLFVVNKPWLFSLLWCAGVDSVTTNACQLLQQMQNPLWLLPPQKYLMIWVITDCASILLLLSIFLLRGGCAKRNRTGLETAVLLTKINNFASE

B1: WAVE3 (Wiskott-Aldrich syndrome protein family member 3), as used in the coimmunoprecipitations (protein, UniProt Q8VHI6 1-501)
chain: MPLVKRNIEPRHLCRGALPEGVTSELECVTNSTLAAIIRQLSSLSKHAEDIFGELFNEANNFYIRANSLQDRIDRLAVKVTQLDSTVEEVSLQDINMKKAFKSSTIQDQQVVSKNSIPNPVADIYNQSDKPPPLSILTPYRDDKKDGLKFYTDPSYFFDLWKEKMLQDTEDKRKEKRRQKEQKRVDGTTREVKKVRKARNRRQEWNMMAYDKELRPDNRLSQSVHHGASSEGSLSPDTRSHTSDVTDYSYPATPNHALQAQPATPSYTAGDAPLHGTTNQGAEHEYRPSSASARHMALNRPQQPPPPPPPQAPEGSQASTSVAPADYGMLPAQIIEYYSPSGPPPPPPPPMIPSAQTAFVSPLQMPTQPPFPASAVSTYPTPPHQPSTGLLATAPPPPGPPPPPPGPPGPSSLSSSPMHGPPVAEAKRPEPAQPPISDARSDLLAAIRMGIQLKKVQEQREQEAKREPVGNDVATILSRRIAVEYSDSDDDSEFDENDWSD

Molecular target: T1, GDE3 (glycerophosphodiester phosphodiesterase 3), as used in the coimmunoprecipitations
Assay: co-IP; transfected HEK293T cells or cultured astrocytes; methods of the coimmunoprecipitation not given in the text shown

Molecule	binding
WAVE2, as used in the coimmunoprecipitations (from UniProt Q9Y6W5 1-498)	no binding
B1	no binding
